Results as given in publication PMC7862700.
The entries are a selection whose mix differs from that of the whole data set. At the low end of the ranking the order means little.

What follows are sequences tested against SPI1 (UniProt P17947) (assay: DAPPL (digital affinity profiling via proximity ligation, sequencing)). Conditions: 10 mM Tris-HCl pH 7.5, 50 mM NaCl, 1 mM DTT, 4% glycerol, room temperature, 30 min; GST-TFs on glutathione beads, 16-mer random dsDNA library, 0.1% …; high values mean tight binding; double strand, one strand shown; scale: fold enrichment (6-mer frequency, TF over GST control).

Sequence	binding signal
AGCTTG	0.93
CGTTGC	0.997
AGATAT	0.972
CGAATC	0.907
GACCCA	0.851
CTTCAC	1.37
ACTCAC	1.23
ACTAGA	0.93
ATTCGG	0.917
AAGATC	1.04
CCGTAT	1.26
CGAAGG	0.894
ACGTTG	1.08
TCAAGT	1.06
GCCATC	0.935
GGGTAT	0.91
CCAGCA	0.924
GCGTAT	0.974
CCACTG	1.16
CCTAAT	1.34

Sequence	binding signal
AGGCTA	0.892
CATTTG	1.29
CTACGC	1.59
TTACGC	1.07
AACTCA	1.25
TCCAAA	1.12
CTCGGG	0.914
GACTTA	0.962
TATCCC	1.36
GATGCA	1.06
AGTTAT	0.959
CAGATA	0.937
TCAGTT	0.956
GCCGTC	0.921
GCTAAG	0.972
CAAAGA	0.989
AGGTCC	0.894
CGTTCC	1.44
GTATGG	1.06

Not a retest: entries from further up.
Sequence	binding signal
TTACGC	1.07
AACTCA	1.25
TCCAAA	1.12
CTCGGG	0.914
GACTTA	0.962
TATCCC	1.36
GATGCA	1.06
AGTTAT	0.959
CAGATA	0.937
TCAGTT	0.956
GCCGTC	0.921
